Results on one substance are retold here after article PMC11530851.

Results are given in words; binding and its absence hold for the method and conditions named. Some entries that bind do so weakly or less than the wild type.

The target in this experiment is SKIV2L of the human SKI (hSKI) complex, N-terminus MBP-tagged (human) (UniProt Q15477). In words: co-purification (amylose affinity, Ni-NTA affinity, then size exclusion chromatography); three proteins co-expressed in Sf9; soluble extract on amylose resin (MBP-SKIV2L), maltose eluate on Ni-NTA (His-Flag-TTC37), tags cleaved with PreScission protease, Superose 6 Increase 10/300 GL; 50 mM Hepes-KOH pH 7.6, 150-250 mM NaCl washes; Coomassie SDS-PAGE. (In general: In gel filtration, larger molecules generally elute earlier.)

“TTC37 of the human SKI (hSKI) complex, N-terminus His-Flag tagged (from UniProt Q6PGP7 1-1564)”: the binding entry was “binds”.
